Primary screen of a compound library

Protein sequences, listed by entry. Tags and fused reporters are not part of them.
UniProt E9BF75, entry or part of it: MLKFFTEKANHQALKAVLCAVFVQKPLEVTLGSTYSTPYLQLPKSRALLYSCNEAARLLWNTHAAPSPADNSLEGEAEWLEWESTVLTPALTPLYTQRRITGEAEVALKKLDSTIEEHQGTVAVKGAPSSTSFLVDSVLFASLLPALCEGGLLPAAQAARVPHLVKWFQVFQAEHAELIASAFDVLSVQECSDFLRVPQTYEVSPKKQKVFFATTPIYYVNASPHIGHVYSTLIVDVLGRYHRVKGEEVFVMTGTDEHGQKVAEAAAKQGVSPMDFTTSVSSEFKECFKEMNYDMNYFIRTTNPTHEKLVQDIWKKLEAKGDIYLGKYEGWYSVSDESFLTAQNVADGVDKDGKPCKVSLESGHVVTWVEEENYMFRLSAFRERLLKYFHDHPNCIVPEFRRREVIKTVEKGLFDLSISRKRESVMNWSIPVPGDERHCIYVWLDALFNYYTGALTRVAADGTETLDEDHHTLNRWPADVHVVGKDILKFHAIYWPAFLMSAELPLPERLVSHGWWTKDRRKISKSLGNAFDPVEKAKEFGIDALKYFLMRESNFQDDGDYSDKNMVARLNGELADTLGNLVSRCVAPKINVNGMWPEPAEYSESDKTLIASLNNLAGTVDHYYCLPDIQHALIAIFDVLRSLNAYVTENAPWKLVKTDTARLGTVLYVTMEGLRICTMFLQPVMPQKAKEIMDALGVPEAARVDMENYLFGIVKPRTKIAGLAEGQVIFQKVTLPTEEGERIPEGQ

A: 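Primary screen of methionyl-tRNA synthetase; the read-out is not stated. Target: Methionyl-tRNA synthetase (putative), Leishmania donovani (UniProt E9BF75). The test concentration is not given. The values are filed as inhibition. Size under these conditions: about 68,000 compounds, about 24 of them at 50% or above in at least one test.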
B: 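Assay on Mycobacterium tuberculosis, filed only as a heat shock assay from Cornell; the read-out is not stated. The concentration is filed as 10 mM, unlikely as a test dose, so the dose is not known. Higher reads as stronger inhibition (inferred: compounds with an IC50 in retests scored well above the rest). Size under these conditions: about 69,000 compounds, about 930 of them at 50% or above in at least one test.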

All values are in %.
The controls that fix the scale are not given in the record; negative values are as filed.
The compounds are a random part of those screened.

For Cc1nn(C)c(C)c1CC(=O)N1CCCC(n2ccnc2C)C1 (centres unmarked) the result was A: 12.01%; B: 10.74%.
For O=C(O)C(F)(F)F.O=C(O)C(F)(F)F.O=C(O)C(F)(F)F.[H][C@@]12C[C@@H](OCCN3CCCC3)CN1CCN(C(=O)Cc1ccccn1)C2 the result was B: -22.76%.
For Cc1cc(C)c(CNC(=O)N2CCCC2c2cc(C)on2)c(=O)[nH]1 (centres unmarked) the result was A: 25.64%; B: -11.44%.
For O=C(NCCn1cccc1)C1CCCN(C2CCCC2)C1 (centres unmarked) the result was A: 8.075%; B: -16.56%.
For O=C(c1cscn1)N1CCC(Cn2cc(-c3ccsc3)nn2)CC1 the result was A: 6.406%; B: 11.57%.
For Cc1noc([C@@H]2C[C@H]3OCC[C@H]3N(S(=O)(=O)c3ccccc3)C2)n1 the result was A: 17.18%.
For CSCc1cc(C(=O)NC2(C#N)CC2)ccc1F the result was A: 8.06%; B: 4.266%.
For COCCNC(=O)N1CCN(c2cc(F)ccc2F)CC1 the result was A: 11.38%; B: 32.94%.
For c1ncc2c(n1)CN(Cc1nc(-c3ccsc3)no1)CC2 the result was A: 20%; B: -11.27%.
For CC(=O)NCC(=O)N1CCOC2(CCCN(c3cccnc3)C2)C1.O=C(O)C(F)(F)F (centres unmarked) the result was B: -12.47%.
For CS(=O)(=O)CC1CCCN(c2ncnc3c2Cc2ccccc2OC3)C1 (centres unmarked) the result was A: 12.06%; B: 1.359%.
For O=C(NC1CCCN(c2ccccn2)C1)C1(c2ccccc2F)CC1 (centres unmarked) the result was A: -0.9317%; B: -26.29%.
For c1ccc(-c2nnc(CNC3CCCN(c4cccnn4)C3)o2)cc1 (centres unmarked) the result was A: 28.68%; B: 22.83%.
For COc1cccc(N2CCN(Cc3ccc(NC(C)=O)cc3)CC2=O)c1 the result was A: 11.5%; B: -17.81%.
For COc1ccc2nnc(CCCC(=O)NCc3ccccc3OC)n2n1 the result was A: 5.943%; B: 9.865%.
For Cc1cncc(CN2CC[C@@](O)(CNC(=O)c3c[nH]cn3)[C@H](O)C2)c1 the result was A: 5.346%; B: -3.414%.
For Cc1cccc(-n2cc(C(=O)N3CCn4c(C)nnc4C3)nn2)c1 the result was A: 8.5%; B: -7.437%.
For Cn1ccc(C(=O)N2C[C@H]3CCC[C@@]3(COCc3cccnc3)C2)n1 the result was A: 10.62%.
For Cc1nc(-c2cccc(N3CCC(N4CCCC(C#N)C4)CC3)c2)cs1 (centres unmarked) the result was A: 2.721%; B: -10.5%.
For O=C(O)C(F)(F)F.[H][C@@]12CCCO[C@]1([H])[C@H](NC(=O)CC1CC1)CN(c1ncccn1)C2 the result was B: 4.641%.
For Cc1noc(C)c1NC(=O)NC1CCN(C(=O)OC(C)(C)C)CC1 the result was A: 11.02%; B: -7.301%.
For O=c1cc(C2CCNCC2)nc(Cc2cccc(Cl)c2)[nH]1 the result was A: 1.875%; B: -19.65%.
For Cc1ccc(OCC2CCCN(C(=O)c3csc(CN(C)C)n3)C2)cc1 (centres unmarked) the result was A: 12.47%; B: -21.37%.
For O=C(Cc1cccnc1)N1CCC2(CC1)CCN(C1CCOC1)C2 (centres unmarked) the result was A: 6.989%.
For CC(C)(C)C(=O)NCc1nccn1CCc1ccccc1 the result was A: 21.55%; B: 10.19%.
For Cn1cc(CNCC2Cn3nnc(-c4ccccc4)c3CO2)cn1 (centres unmarked) the result was A: 12.45%; B: -0.09923%.
For Cc1ccc(N2CCN(C(=O)CCC(F)(F)F)C(C)C2)cc1 (centres unmarked) the result was A: 8.904%; B: 22.42%.
For Cc1nc(-c2cc(C(=O)N3CCN(C)CC3)c3ccccn23)cn1C the result was A: -2.256%; B: -21.4%.
For Cc1noc(C)c1CS(=O)(=O)CC(=O)NCCc1ccccc1 the result was A: 11.35%; B: 3.639%.
For COc1ccccc1CN1C[C@@H](F)[C@@H](OCc2nc3ncccc3[nH]2)C1 the result was A: 15.04%; B: -63.6%.
For Cc1nc(-c2cnn(C)c2)nc2c1CN(C(=O)c1cccn1C)CC2 the result was A: 6.806%; B: -14.32%.
For Cc1ccc(-c2nn(-c3cccc(F)c3)cc2CN(C)CCO)o1 the result was A: 5.292%; B: -0.6285%.
For Cc1cc(C)n(Cc2ccc(-c3noc(C(=O)NCCO)n3)cc2)n1 the result was A: 15.59%; B: 3.161%.
For CCn1cc(CN2CCN(C(=O)c3cc(C)c(C)s3)CC2)c(C)n1 the result was A: 11.75%; B: 4.971%.
For CCCc1nc(CNc2ccc(F)c(F)c2)no1 the result was A: -1.344%; B: 6.669%.
For COCCC(=O)Nc1ccnn1-c1ccccc1 the result was A: 2.687%; B: -7.442%.
For COCCN1CCC(CNc2cnc3ccccc3n2)CC1 the result was A: 8.108%; B: -7.777%.
For CC(C)(C)c1nc(CN2CCOC(Cn3cncn3)C2)cs1 (centres unmarked) the result was A: 8.659%; B: -16.49%.
For CCC(C)Nc1ccc2c(c1)C1(CCOCC1)C(=O)N2c1ccccc1 (centres unmarked) the result was A: 12.89%; B: -2.022%.
For CCC(=O)NCCCn1c(-c2cccnc2C)cc2cccnc21.Cl the result was B: 1.011%.
For COC(=O)CCCNC(=O)COc1ccccc1C(F)(F)F the result was A: 11.5%; B: -16.85%.
For NC(=O)CCC1CCCN(c2ccc3ccc(F)cc3n2)C1 (centres unmarked) the result was A: 9.309%; B: 0.7821%.
For Nc1nc(CN2CCCC2Cn2cncn2)nc2ccccc12 (centres unmarked) the result was A: 20.63%; B: -4.506%.
For Cc1cccc(Nc2cc(C3CCCN(CC(N)=O)C3)ccn2)n1.O=CO.O=CO (centres unmarked) the result was B: -17.63%.
For Cc1nc(Nc2nncs2)cc(C2CNC2)n1 the result was A: 4.658%.

4 of the entries, repeated:

Result for Cc1cccc(-n2cc(C(=O)N3CCn4c(C)nnc4C3)nn2)c1 was A: 8.5%; B: -7.437%.
Result for CC(=O)NCC(=O)N1CCOC2(CCCN(c3cccnc3)C2)C1.O=C(O)C(F)(F)F (centres unmarked) was B: -12.47%.
Result for Cn1ccc(C(=O)N2C[C@H]3CCC[C@@]3(COCc3cccnc3)C2)n1 was A: 10.62%.
Result for COC(=O)CCCNC(=O)COc1ccccc1C(F)(F)F was A: 11.5%; B: -16.85%.

Source: ChEMBL document CHEMBL3988442, “University of Dundee, Small-Polar-MMV Screening Library” (2021).